Laboratory results taken from the supplement of paper PMC12819154, “High-throughput peptide-centric local stability assay extends protein–ligand identification to membrane proteins, tissues and bacteria” (Nature Structural & Molecular Biology, 2025).
The list shows a part of the results. Small differences around the control level are noise.

Sequences of proteins named here, by UniProt entry; tags and fusion partners are left off. A change or cut given only in a name is not applied to a line headed by its entry.
UniProt P42224: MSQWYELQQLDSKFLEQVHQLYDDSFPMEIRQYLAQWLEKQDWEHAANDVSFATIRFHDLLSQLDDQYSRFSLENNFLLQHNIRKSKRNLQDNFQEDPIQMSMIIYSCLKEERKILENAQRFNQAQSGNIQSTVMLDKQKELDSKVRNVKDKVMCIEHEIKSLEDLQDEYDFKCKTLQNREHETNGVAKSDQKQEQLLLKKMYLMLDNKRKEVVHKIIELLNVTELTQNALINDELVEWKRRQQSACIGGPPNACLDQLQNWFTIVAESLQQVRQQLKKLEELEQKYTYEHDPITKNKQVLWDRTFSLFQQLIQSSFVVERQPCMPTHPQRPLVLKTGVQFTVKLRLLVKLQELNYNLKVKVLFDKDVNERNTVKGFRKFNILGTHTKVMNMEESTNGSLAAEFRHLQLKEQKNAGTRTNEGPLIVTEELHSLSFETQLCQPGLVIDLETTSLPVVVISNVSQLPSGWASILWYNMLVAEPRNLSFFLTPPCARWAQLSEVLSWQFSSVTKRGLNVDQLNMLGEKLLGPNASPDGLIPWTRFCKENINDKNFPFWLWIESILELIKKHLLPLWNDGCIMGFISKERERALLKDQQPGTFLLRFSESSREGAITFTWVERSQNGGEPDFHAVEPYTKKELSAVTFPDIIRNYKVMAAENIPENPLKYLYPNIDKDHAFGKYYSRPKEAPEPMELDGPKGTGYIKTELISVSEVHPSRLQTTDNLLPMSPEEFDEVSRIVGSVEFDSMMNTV
UniProt P30837: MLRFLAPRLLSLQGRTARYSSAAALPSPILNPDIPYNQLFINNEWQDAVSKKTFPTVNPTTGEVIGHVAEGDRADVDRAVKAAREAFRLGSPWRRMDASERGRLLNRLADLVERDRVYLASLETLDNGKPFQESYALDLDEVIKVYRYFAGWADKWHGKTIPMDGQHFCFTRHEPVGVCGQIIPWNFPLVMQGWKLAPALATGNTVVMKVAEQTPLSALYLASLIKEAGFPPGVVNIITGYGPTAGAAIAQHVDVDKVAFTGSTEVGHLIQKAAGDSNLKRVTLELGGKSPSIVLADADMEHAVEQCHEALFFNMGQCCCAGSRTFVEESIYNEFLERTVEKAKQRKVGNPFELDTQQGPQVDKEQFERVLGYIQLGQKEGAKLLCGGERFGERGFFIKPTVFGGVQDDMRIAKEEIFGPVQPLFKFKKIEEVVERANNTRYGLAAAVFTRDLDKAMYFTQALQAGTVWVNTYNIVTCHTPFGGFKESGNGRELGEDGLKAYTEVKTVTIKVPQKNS
UniProt P30047: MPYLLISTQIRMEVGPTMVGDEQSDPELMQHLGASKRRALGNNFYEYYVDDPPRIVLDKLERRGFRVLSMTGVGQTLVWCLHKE
UniProt P35241, whole entry: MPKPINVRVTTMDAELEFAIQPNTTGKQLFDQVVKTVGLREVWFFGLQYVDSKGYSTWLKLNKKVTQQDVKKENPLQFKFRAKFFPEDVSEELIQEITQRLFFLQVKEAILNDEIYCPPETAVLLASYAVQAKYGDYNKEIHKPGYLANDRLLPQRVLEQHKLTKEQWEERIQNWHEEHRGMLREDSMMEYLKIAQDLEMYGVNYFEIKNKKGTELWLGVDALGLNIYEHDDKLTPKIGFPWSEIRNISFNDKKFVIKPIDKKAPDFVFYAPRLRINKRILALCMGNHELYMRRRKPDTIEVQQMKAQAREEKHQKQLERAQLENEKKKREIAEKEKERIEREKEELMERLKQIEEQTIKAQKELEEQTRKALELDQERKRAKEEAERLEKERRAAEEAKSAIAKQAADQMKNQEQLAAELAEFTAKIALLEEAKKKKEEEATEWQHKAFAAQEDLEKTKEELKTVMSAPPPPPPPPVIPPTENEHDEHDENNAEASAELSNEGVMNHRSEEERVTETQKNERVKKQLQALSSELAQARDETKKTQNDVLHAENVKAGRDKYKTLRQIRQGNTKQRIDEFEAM
UniProt P37275: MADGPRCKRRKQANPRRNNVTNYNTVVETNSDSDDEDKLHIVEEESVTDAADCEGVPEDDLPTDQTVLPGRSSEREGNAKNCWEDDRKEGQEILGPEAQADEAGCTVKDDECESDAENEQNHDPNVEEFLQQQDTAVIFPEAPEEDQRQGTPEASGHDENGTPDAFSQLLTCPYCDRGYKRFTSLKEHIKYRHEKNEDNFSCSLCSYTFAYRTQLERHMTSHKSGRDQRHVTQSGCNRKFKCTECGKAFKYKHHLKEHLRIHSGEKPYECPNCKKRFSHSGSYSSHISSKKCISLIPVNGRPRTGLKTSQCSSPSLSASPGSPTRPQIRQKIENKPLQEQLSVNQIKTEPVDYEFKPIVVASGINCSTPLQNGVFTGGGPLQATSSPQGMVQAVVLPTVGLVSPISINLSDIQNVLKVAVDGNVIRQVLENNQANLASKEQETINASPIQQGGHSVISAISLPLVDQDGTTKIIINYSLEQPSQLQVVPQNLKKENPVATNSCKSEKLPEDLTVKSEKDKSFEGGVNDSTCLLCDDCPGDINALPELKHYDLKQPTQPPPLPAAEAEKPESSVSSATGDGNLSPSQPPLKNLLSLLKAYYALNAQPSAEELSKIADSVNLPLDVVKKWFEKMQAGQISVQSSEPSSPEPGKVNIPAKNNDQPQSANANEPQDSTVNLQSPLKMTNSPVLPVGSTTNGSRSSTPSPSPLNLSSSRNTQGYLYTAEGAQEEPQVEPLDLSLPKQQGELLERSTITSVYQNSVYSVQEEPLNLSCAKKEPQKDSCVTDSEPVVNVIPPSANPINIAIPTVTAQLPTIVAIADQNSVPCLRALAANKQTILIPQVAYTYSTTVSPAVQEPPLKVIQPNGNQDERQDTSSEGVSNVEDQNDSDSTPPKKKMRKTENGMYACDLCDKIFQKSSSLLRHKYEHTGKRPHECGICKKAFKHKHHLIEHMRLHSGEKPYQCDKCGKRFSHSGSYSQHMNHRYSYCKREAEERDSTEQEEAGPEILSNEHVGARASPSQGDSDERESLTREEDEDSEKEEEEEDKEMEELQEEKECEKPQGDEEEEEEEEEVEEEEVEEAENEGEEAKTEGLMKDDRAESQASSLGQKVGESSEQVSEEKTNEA
UniProt P33121: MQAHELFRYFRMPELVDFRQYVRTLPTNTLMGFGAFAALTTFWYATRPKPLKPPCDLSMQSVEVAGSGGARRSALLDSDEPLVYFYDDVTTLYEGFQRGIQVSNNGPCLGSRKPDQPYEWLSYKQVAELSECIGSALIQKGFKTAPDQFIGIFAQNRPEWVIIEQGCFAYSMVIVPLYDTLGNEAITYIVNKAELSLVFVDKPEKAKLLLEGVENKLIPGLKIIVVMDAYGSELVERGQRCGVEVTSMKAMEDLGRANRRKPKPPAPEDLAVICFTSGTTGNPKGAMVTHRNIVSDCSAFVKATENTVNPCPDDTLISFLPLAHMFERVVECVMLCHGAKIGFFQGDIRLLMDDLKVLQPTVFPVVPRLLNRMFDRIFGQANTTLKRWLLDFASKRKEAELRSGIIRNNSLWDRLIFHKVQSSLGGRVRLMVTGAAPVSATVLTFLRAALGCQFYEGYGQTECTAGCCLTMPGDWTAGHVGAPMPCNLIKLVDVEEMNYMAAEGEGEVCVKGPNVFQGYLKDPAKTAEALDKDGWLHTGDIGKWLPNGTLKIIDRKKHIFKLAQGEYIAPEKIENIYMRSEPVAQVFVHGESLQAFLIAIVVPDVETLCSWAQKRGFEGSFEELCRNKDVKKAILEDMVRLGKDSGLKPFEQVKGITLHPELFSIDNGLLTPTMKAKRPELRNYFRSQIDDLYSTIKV
UniProt P29350: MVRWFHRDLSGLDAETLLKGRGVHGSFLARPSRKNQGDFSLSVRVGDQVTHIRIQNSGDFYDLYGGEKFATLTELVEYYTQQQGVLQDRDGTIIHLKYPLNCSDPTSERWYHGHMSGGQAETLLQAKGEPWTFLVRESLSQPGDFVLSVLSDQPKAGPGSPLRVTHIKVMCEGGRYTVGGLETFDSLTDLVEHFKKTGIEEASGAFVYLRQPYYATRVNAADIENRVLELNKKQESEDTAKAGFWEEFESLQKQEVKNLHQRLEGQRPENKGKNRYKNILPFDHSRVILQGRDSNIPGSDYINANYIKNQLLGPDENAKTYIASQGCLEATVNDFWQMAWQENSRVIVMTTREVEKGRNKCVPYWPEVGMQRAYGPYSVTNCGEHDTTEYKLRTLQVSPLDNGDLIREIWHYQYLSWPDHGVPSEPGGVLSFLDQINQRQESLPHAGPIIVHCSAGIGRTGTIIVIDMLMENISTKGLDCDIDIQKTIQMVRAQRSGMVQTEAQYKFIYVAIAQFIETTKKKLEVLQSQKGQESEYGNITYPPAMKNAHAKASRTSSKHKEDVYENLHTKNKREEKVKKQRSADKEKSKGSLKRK
UniProt P35270: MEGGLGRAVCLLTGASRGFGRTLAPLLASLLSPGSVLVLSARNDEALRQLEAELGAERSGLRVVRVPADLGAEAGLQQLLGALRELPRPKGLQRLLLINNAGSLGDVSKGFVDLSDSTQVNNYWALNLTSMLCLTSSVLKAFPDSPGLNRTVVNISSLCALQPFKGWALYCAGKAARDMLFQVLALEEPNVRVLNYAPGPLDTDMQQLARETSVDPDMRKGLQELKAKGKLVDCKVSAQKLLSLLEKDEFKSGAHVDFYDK
UniProt P36575, whole entry: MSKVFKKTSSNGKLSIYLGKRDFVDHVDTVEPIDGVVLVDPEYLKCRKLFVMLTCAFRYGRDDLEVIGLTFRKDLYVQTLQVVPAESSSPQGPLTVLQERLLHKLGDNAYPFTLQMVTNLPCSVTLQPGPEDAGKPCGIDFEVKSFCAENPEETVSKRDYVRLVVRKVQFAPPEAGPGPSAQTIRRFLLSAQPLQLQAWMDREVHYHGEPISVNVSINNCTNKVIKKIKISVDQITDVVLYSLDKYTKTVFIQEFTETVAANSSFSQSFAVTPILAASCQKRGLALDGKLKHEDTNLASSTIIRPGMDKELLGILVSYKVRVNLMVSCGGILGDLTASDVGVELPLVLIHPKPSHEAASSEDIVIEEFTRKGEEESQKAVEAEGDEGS
UniProt P30101, whole entry: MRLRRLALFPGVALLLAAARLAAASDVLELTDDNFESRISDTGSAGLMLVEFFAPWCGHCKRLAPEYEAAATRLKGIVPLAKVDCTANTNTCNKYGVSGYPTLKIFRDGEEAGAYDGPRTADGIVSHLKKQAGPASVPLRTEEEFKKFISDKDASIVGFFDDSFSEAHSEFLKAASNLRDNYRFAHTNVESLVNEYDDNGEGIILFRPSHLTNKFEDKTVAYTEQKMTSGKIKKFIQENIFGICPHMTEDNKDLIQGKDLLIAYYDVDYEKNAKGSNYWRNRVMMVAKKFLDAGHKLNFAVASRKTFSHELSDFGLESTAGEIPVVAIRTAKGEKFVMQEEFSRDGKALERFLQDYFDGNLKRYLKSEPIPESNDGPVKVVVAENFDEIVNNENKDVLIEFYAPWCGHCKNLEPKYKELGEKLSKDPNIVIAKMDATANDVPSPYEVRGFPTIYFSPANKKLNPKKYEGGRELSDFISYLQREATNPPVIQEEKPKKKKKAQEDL

compound: CN[C@@H]1C[C@H]2O[C@@](C)([C@@H]1OC)n1c3ccccc3c3c4c(c5c6ccccc6n2c5c31)C(=O)NC4 [staurosporine]; test: log2 fold change of tryptic peptide abundance, ligand vs vehicle (limited proteolysis) (log2 ratio); higher = more trypsin-susceptible (destabilized); details: ligand concentration: 20 uM; sample: K562 cleared lysate; digestion: 4 min, 22 C (HT-PELSA RT4min, Orbitrap Astral)

Target | log2 fold change
STAT1 (peptide sequence: KFNILGTHTK, peptide start residue: 379) (UniProt P42224) | -0.513
ALDH1B1 (peptide sequence: KIEEVVER, peptide start residue: 429) (UniProt P30837) | 0.236
GCHFR (peptide sequence: IVLDKLER, peptide start residue: 55) (UniProt P30047) | 0.375
RDX (peptide sequence: KALELDQER, peptide start residue: 371) (UniProt P35241) | 0.196
ZEB1 (peptide sequence: VGESSEQVSEEK, peptide start residue: 1109) (UniProt P37275) | -0.643
ACSL1 (peptide sequence: TAEALDKDGWLHTGDIGK, peptide start residue: 526) (UniProt P33121) | 0.615
PTPN6 (peptide sequence: GLDCDIDIQK, peptide start residue: 477) (UniProt P29350) | -0.446
SPR (peptide sequence: VLNYAPGPLDTDMQQLAR, peptide start residue: 193) (UniProt P35270) | 0.362
UniProt P36575 (peptide sequence: YGRDDLEVIGLTFRK, peptide start residue: 59) | 0.0632
PDIA3 (peptide sequence: QAGPASVPLRTEEEFK, peptide start residue: 131) (UniProt P30101) | 0.45

Another view of part of the listing above:
Target	log2 fold change
STAT1 (peptide sequence: KFNILGTHTK, peptide start residue: 379) (UniProt P42224)	-0.513
ALDH1B1 (peptide sequence: KIEEVVER, peptide start residue: 429) (UniProt P30837)	0.236
